Measured values published in the supplement of paper PMC4635364.
Counter-ions that a name gives are not always drawn. The list shows a part of the results. Single values are uncertain here, since repeats match poorly.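 ReNCell VM, a human fetal ventral-midbrain neural progenitor line, was differentiated without mitogens. Blinded raters scored images stained for doublecortin (early neurons) or tyrosine hydroxylase (dopaminergic neurons) against untreated wells (0 = no change). Scores were averaged across repeats and both raters, and compounds averaging 2 or more were selected as hits for retesting.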

What follows are compounds tested on ReNCell VM (assay: neuronal differentiation score (DCX+ cell fraction vs untreated, manual image score) (score (-3 to 3)); higher = more neuronal differentiation). Settings: library: Tocriscreen; 2 uM; 2 weeks.

Neuronal differentiation score, inactive:
N#C/C(=C\c1ccc(O)c(O)c1)C(=O)NCc1ccccc1 0, Oc1cc2c(cc1O)C(c1ccccc1)CNCC2 (stereo unspecified) 0, Cc1cc(C)c(S(=O)(=O)Nc2cccc(C(F)(F)F)c2)c(C)c1 0, COc1ccc(CCN(C)CCCN2CCc3cc(OC)c(OC)cc3CC2=O)cc1OC [Zatebradine hydrochloride] 0, COc1cc(Br)c(S(=O)(=O)Nc2ccc(Cl)c(O[C@@H]3CCN(C)C3)c2)cc1OC 0

Each compound was assayed on ReNCell VM (assay: dopaminergic neuron differentiation score (TH+ cell fraction vs untreated, manual image score) (score (0 to 3)); higher = more TH+ dopaminergic neuron differentiation). Settings: library: LOPAC; 2 uM; 4 weeks; BDNF 10 ng/ml + GDNF 10 ng/ml.

Dopaminergic neuron differentiation score, inactive:
C[C@]12CCC(=O)C=C1CC[C@@H]1[C@@H]2CC[C@@]2(C)[C@H]1CC[C@]2(O)C(=O)CO [Cortexolone] 1, CC(=O)OCC1=C(C(=O)O)N2C(=O)[C@@H](NC(=O)Cc3cccs3)[C@H]2SC1 [Cephalothin sodium] 0, CCCCCCCC/C=C\CCCCCCCC(=O)O [Oleic Acid] 0, CNC(=O)c1cc2c(cn1)[nH]c1ccccc12 [N-Methyl-beta-carboline-3-carboxamide] 0

Same assay, conditions: library: Prestwick; 2 uM; 4 weeks; BDNF 10 ng/ml + GDNF 10 ng/ml

Dopaminergic neuron differentiation score, inactive:
CC(CN(C)C)CN1c2ccccc2Sc2ccccc21 (stereo unspecified) [Trimeprazine tartrate] 0, CCOC(=O)C1=C(COCCN)NC(C)=C(C(=O)OC)C1c1ccccc1Cl (stereo unspecified) [Amlodipine] 0, CC1(C)S[C@@H]2[C@H](NC(=O)[C@H](C(=O)O)c3ccsc3)C(=O)N2[C@H]1C(=O)O [Ticarcillin sodium] 0, Cc1cc(NC(=O)C2=C(O)c3ccccc3S(=O)(=O)N2C)no1 [Isoxicam] 0, CC(=O)/N=c1/sc(S(N)(=O)=O)nn1C [Methazolamide] 0, Cn1c([N+](=O)[O-])cnc1COC(N)=O [Ronidazole] 0, COc1cc(C)c(/C=C/C(C)=C/C=C/C(C)=C/C(=O)O)c(C)c1C [Acitretin] 0, CCCCCCCN(CC)CCCC(O)c1ccc(NS(C)(=O)=O)cc1 (stereo unspecified) [Ibutilide fumarate] 0, COc1ccc(-c2cc(=S)ss2)cc1 [Anethole-trithione] 0

Same assay, conditions: library: Spectrum; 2 uM; 4 weeks; BDNF 10 ng/ml + GDNF 10 ng/ml

Dopaminergic neuron differentiation score, inactive:
CCCCC(=O)O[C@]1(C(=O)CO)CC[C@H]2[C@@H]3CCC4=CC(=O)CC[C@]4(C)[C@H]3[C@@H](O)C[C@@]21C 0, O=C([O-])C(O)[C@H](O)[C@@H](O)[C@H](O)[C@H](O)CO.O=C([O-])C(O)[C@H](O)[C@@H](O)[C@H](O)[C@H](O)CO.[Ca+2] (stereo partly specified) 0, COc1cnc(NS(=O)(=O)c2ccc(N)cc2)nc1 0, CCC1(c2ccccc2)C(=O)NCNC1=O 0, Cc1c(S(=O)(=O)O)oc2c1C(=O)C(=O)c1c-2ccc2c1CCCC2(C)C 0, CCN(CCCCOC(=O)c1ccc(OC)c(OC)c1)C(C)Cc1ccc(OC)cc1 (stereo unspecified) 0, COc1ccc(CN2CCN(C(c3ccc(F)cc3)c3ccc(F)cc3)CC2)c(OC)c1OC 0, Cc1ncc(COP(=O)([O-])[O-])c(CN(CCN(CC(=O)O)Cc2c(COP(=O)([O-])O)cnc(C)c2O)CC(=O)O)c1O.[Mn].[Na+].[Na+].[Na+] 0, CN1[C@@H](CC(=O)c2ccccc2)CCC[C@H]1C[C@H](O)c1ccccc1 0, CC[n+]1c(-c2ccccc2)c2cc(N)ccc2c2ccc(N)cc21 0, CC(C)(C)C(=O)C(Oc1ccc(Cl)cc1)n1ccnc1 (stereo unspecified) 0, NC(=O)N1c2ccccc2CC(=O)c2ccccc21 0, CC(=O)OC1CC2CCC1(C)C2(C)C (stereo unspecified) 0, CN1CCCN=C1COC(=O)C(O)(c1ccccc1)C1CCCCC1 (stereo unspecified) 0, O=C(c1ccccc1)c1ccc2n1CCC2C(=O)O (stereo unspecified) 0, COC(=O)[C@@H]1OC(=O)C2OC23[C@@]1(C)CCC1[C@]2(C)C(C[C@@H](O)[C@]13C)C(C)(C)[C@H](OC(C)=O)C[C@@H]2OC(C)=O (stereo partly specified) 0, CC(=O)O[C@H]1C[C@@H](OC(C)=O)C(C)(C)C2C[C@@H](O)[C@]3(C)C(CC[C@@]4(C)[C@H](c5ccoc5)OC(=O)[C@H]5O[C@]543)[C@]21C (stereo partly specified) 0, C[C@@]12CCc3occc3[C@H]1CC[C@@]13C[C@@H](CC[C@H]12)[C@@](O)(CO)C3 0
